Where “and” joins values, the source holds several entries; their conditions need not be identical. Equal entries are not always repeated. This is one part of the list. Repeats in this data set agree poorly, so a single value says little.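 U2OS cells carrying ACE2 were mixed with U2OS cells carrying full-length spike, and fusion was scored by imaging as the share of nuclei showing both cell types' fluorescent markers. A compound counts as an inhibitory hit when it is non-toxic and its fusion z-score falls below -3, meaning more than three standard deviations below the plate's DMSO wells.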
System: U2OS ACE2 x SARS-CoV-2 spike co-culture
Assay: cell-cell fusion (fraction fused) z-score vs plate DMSO control; higher = more fusion
Conditions: 30 µM; 5 h; toxicity class: non-toxic, passed QC

| Compound | cell-cell fusion (z-score) |
| --- | --- |
| COc1nc(-c2ccc3c(c2)OCO3)n(-c2ccc(NC(=O)CSc3ccccc3)cc2)n1 [SecinH3] | inactive: 2.78 |
| CC(C)CCCC(C)N (centres undefined) | inactive: 3.72 |
| CCCc1nn(C)c2c(=O)[nH]c(-c3cc(S(=O)(=O)N4CCN(C)CC4)ccc3OCC)nc12 [Sildenafil] | inactive: 1.37 |
| Cc1ccnc(NS(=O)(=O)c2ccc(N)cc2)n1 | inactive: 2.03 |
| COc1ccc(-c2coc3c4c(c(CC=C(C)C)c(OC)c3c2=O)OC(C)(C)C=C4)cc1OC | inactive: 2.44 |
| C[C@H]1O[C@@H](O[C@H]2[C@@H](O)C[C@H](O[C@H]3[C@@H](O)C[C@H](O[C@H]4CC[C@]5(C)C6CC[C@]7(C)[C@@H](C8=CC(=O)OC8)CC[C@]7(O)C6CC[C@@H]5C4)O[C@@H]3C)O[C@@H]2C)C[C@H](O)[C@@H]1O (some centres undefined) | inactive: -0.208 |
| CN[C@H]1C[C@@H](N)[C@H](O)[C@@H](O[C@@H]2O[C@H](CO)[C@@H]3OC4(O[C@@H]3[C@@H]2O)O[C@H](C(N)CO)[C@H](O)[C@H](O)[C@H]4O)[C@@H]1O (some centres undefined) | inactive: 1.64 |
| CNC(=O)[C@H]1O[C@@H](n2cnc3c(NCc4ccc(I)cc4)nc(Cl)nc32)[C@H](O)[C@@H]1O [Chloro-IB-MECA] | active: -11.5 |
| C=C1CC[C@H](O)C/C1=C/C=C1\CCC[C@]2(C)C([C@H](C)/C=C/[C@H](C)C(C)C)CC[C@@H]12 (some centres undefined) | inactive: 1.65 |
| COc1cc([C@@H]2c3cc4c(cc3C(O[C@@H]3O[C@@H]5CO[C@@H](c6cccs6)OC5[C@H](O)[C@H]3O)C3COC(=O)[C@@H]32)OCO4)cc(OC)c1O (some centres undefined) | inactive: 3.67 |
| CC1=NN=C(c2ccc(N)cc2)c2cc3c(cc2C1)OCO3.Cl | inactive: 8.95 |
| CN1CCc2ccccc2Cc2[nH]c3ccccc3c2CC1 | inactive: 3.03 |
| O=c1[nH]cnc2[nH]ncc12 | inactive: 1.39 |
| COc1cc2occ(-c3ccccc3)c(=O)c2c(OC)c1C | inactive: 1.87 |
| O=Cc1ccccc1O[C@@H]1O[C@H](CO)[C@H](O)[C@@H](O)[C@H]1O | inactive: 1.63 |
| Cc1ncc([N+](=O)[O-])n1CC(C)O (centres undefined) | inactive: 0.48 |
| CC(=O)NS(=O)(=O)c1ccc(N)cc1 | inactive: 1.92 |
| CC(=O)Nc1cccc(-n2c(=O)n(C3CC3)c(=O)c3c(Nc4ccc(I)cc4F)n(C)c(=O)c(C)c32)c1 | inactive: 1.17 and inactive: 1.24 |
| Cc1ccccc1C(OCCN(C)C)c1ccccc1.O=C(O)CC(O)(CC(=O)O)C(=O)O (centres undefined) [Orphenadrine Citrate] | inactive: 3.6 |
| O=C1NC(=O)c2c1c(-c1ccccc1)cc1[nH]c3ccc(O)cc3c21 | active: -5.27 |
| COc1ccccc1N1CCN(CCN(C(=O)c2ccc(F)cc2)c2ccccn2)CC1.Cl.Cl [p-MPPF dihydrochloride] | inactive: 2.4 |
| CCC(C)n1ncn(-c2ccc(N3CCN(c4ccc(OC[C@H]5CO[C@](Cn6cncn6)(c6ccc(Cl)cc6Cl)O5)cc4)CC3)cc2)c1=O (some centres undefined) [Itraconazole (Sporanox)] | inactive: 1.34 |

| Compound | cell-cell fusion (z-score) |
| --- | --- |
| N[C@H](CO)C(=O)O [D-Serine] | inactive: 2.02 |
| CCC(CO)Nc1nc(NCc2ccccc2)c2ncn(C(C)C)c2n1 (centres undefined) [Roscovitine] | inactive: 2.55 |
| O=c1cc(-c2ccccc2)oc2cc(O)cc(O)c12 | inactive: 2.15 |
| CC(C)(Sc1ccc(CCN(CCCCC2CCCCC2)C(=O)NC2CCCCC2)cc1)C(=O)O | inactive: 3.29 |
| CN(CCOc1ccc(CC2SC(=O)NC2=O)cc1)c1ccccn1.O=C(O)/C=C\C(=O)O (centres undefined) [Rosiglitazone maleate] | inactive: 2.52 |
| CCN1CCN(Cc2ccc(Nc3ncc(F)c(-c4cc(F)c5nc(C)n(C(C)C)c5c4)n3)nc2)CC1 [Abemaciclib] | inactive: 1.05 |
| O=C(CCCCCCC(=O)Nc1ccccc1)NO [Vorinostat] | inactive: 3.45 |
| CSc1nc(N)c2ncn([C@@H]3O[C@H](COP(=O)([O-])OP(=O)([O-])OP(=O)([O-])[O-])[C@H](O)C3O)c2n1.[Na+].[Na+].[Na+].[Na+] (some centres undefined) [2-Methylthioadenosine triphosphate tetrasodium] | inactive: 1.24 |
| CC(C)(C)NCC(O)COc1cccc2c1CCCC2=O.Cl (centres undefined) | inactive: 1.06 |
| CC[N+]1(C)CCCC(OC(=O)C(O)(c2ccccc2)c2ccccc2)C1.[Br-] (centres undefined) | inactive: 3.12 |
| NS(=O)(=O)c1cc2c(cc1Cl)N=CNS2(=O)=O | inactive: 1.04 |
| NS(=O)(=O)c1cc2c(cc1Cl)N=CNS2(=O)=O [Chlorothiazide] | inactive: 1.41 |
| C1CNCCN1.COc1cc(C(O)CO)ccc1O.COc1cc(C(O)CO)ccc1O (centres undefined) [MHPG piperazine] | inactive: 1.68 |
| CN(C)C(=O)Oc1ccc[n+](C)c1.[Br-] [Pyridostigmine bromide] | inactive: 1.15 |
| COC(=O)c1c(C)cc(OC(=O)c2c(C)cc(O)c(C=O)c2O)c(C)c1O | inactive: 2.51 |
| C[n+]1ccccc1C=NO.[Cl-] | inactive: 1.82 |
| CCCCC[C@H](O)CC[C@@H]1[C@H]2Cc3cccc(OCC(=O)[O-])c3C[C@H]2C[C@H]1O.[Na+] [Treprostinil Sodium] | inactive: 1.42 |
| CC[C@H](C)C(=O)O[C@H]1C[C@@H](C)C=C2C=C[C@H](C)[C@H](CC[C@@H]3C[C@@H](O)CC(=O)O3)[C@H]21 [Lovastatin] | inactive: -1.33 |
| O=C(NOCC1CC1)c1cc(Br)c(F)c(F)c1Nc1ccc(I)cc1Cl | inactive: 2.1 |
| CC(=O)/C(=C\c1ccccc1)CC(=O)O | inactive: 2.4 |
| NC(Cc1c[nH]c2ccccc12)C(=O)O (centres undefined) | inactive: 1.75 |
| CCCCCN(CCCOC)C(=O)C(CCC(=O)O)NC(=O)c1ccc(Cl)c(Cl)c1 (centres undefined) [Loxiglumide] | inactive: 2.96 |

Exported as labelled records: entries from further up
O=c1cc(-c2ccccc2)oc2cc(O)cc(O)c12
  cell-cell fusion (z-score): inactive: 2.15
CC(C)(Sc1ccc(CCN(CCCCC2CCCCC2)C(=O)NC2CCCCC2)cc1)C(=O)O
  cell-cell fusion (z-score): inactive: 3.29
CN(CCOc1ccc(CC2SC(=O)NC2=O)cc1)c1ccccn1.O=C(O)/C=C\C(=O)O (centres undefined) [Rosiglitazone maleate]
  cell-cell fusion (z-score): inactive: 2.52
CCN1CCN(Cc2ccc(Nc3ncc(F)c(-c4cc(F)c5nc(C)n(C(C)C)c5c4)n3)nc2)CC1 [Abemaciclib]
  cell-cell fusion (z-score): inactive: 1.05

From the supplement of paper PMC8104966
